Data: PubChem BioAssay AID720641 (ICCB-Longwood Screening Facility, Harvard Medical School, 2013)
Some of the results follow. Some of these compounds have results that are not shown, active ones among them.

Test: S. aureus growth inhibition at 42 and 30 °C, primary screen, LtaS inhibitor project, RN4220, two temperatures (AID 720641)
Conditions: OD600, 20 h, 42 °C, measured here: growth at 30 °C, stronger effect = lower value

Row | Structure (SMILES) | relative growth [%]
1 | O=C(NCC1(N2CCCCC2)CCCCC1)c1ccc2c(c1)OCCO2 | 95.8
2 | CC(C)Oc1ccc(C(=O)NCC2(N(C)C)CCCCC2)cc1 | 87.7
3 | COc1cc(C(=O)NCC2(N(C)C)CCCCC2)cc(OC)c1OC | 87.5
4 | Cc1cccc(C(=O)NCC2(N(C)C)CCCCC2)c1 | 85.9
5 | CN1C2CCC1CC(OC(=O)C(O)(c1ccccc1)c1ccccc1)C2 (centres undefined) | 104
6 | CC(C)COc1ccc(C(=O)NCC2(N(C)C)CCCCC2)cc1 | 84.3
7 | O=C(OC1CN2CCC1CC2)C(CO)(c1ccccc1)c1ccccc1 (centres undefined) | 87.2
8 | COc1cccc(C(=O)NCC2(N3CCOCC3)CCCCC2)c1 | 91.3
9 | COc1ccc(C(=O)NCC2(N(C)C)CCCCC2)cc1Cl | 90.2
10 | CN(C)C1(CNC(=O)c2ccncc2)CCCCC1 | 90.5
11 | N#CC(C#N)=Cc1ccccc1 | 72.2
12 | CCOc1cccc(C(=O)NCC2(N(C)C)CCCCC2)c1 | 87.3
13 | COc1ccc(OC)c(C=C(C#N)C#N)c1 | 66.9
14 | CCCCOc1ccccc1C(=O)NCC1(N(C)C)CCCCC1 | 93.6
15 | CN(C)C1(CNC(=O)c2ccccc2[N+](=O)[O-])CCCCC1 | 87.4
16 | CN(C)c1ccc(C(=O)NCC2(N(C)C)CCCCC2)cc1 | 88.6
17 | CN(C)C1(CNC(=O)c2ccccc2F)CCCCC1 | 86.3
18 | CN(C)C1(CNC(=O)c2cccc(Cl)c2)CCCCC1 | 87
19 | O=C(NCC1(N2CCOCC2)CCCCC1)c1cnc(Cl)c(Cl)c1 | 90.1
